Measurements from PubChem BioAssay AID588590 (National Center for Advancing Translational Sciences (NCATS), 2011).
Hit rate of the full screen: of about 390,000 compounds, about 4,000 (1%) were called active. Inconclusive means that the source gave no clear call. Such entries were picked first, then a sample of the others. The call rests on the fitted dose curve; in most records, active means well fitted inhibition curve with a large enough effect; inconclusive means small, poorly fitted or top-dose-only effect, or another doubt; inactive means no such curve, though single readings can be large or run the other way. Potencies of inconclusive entries are doubtful fits and often do not repeat.

By UniProt entry, the sequences of proteins in these tests, tags left out. Where a name states a change or a piece, a line headed by the entry shows the natural chain unless it says otherwise.
UniProt Q9UNA4: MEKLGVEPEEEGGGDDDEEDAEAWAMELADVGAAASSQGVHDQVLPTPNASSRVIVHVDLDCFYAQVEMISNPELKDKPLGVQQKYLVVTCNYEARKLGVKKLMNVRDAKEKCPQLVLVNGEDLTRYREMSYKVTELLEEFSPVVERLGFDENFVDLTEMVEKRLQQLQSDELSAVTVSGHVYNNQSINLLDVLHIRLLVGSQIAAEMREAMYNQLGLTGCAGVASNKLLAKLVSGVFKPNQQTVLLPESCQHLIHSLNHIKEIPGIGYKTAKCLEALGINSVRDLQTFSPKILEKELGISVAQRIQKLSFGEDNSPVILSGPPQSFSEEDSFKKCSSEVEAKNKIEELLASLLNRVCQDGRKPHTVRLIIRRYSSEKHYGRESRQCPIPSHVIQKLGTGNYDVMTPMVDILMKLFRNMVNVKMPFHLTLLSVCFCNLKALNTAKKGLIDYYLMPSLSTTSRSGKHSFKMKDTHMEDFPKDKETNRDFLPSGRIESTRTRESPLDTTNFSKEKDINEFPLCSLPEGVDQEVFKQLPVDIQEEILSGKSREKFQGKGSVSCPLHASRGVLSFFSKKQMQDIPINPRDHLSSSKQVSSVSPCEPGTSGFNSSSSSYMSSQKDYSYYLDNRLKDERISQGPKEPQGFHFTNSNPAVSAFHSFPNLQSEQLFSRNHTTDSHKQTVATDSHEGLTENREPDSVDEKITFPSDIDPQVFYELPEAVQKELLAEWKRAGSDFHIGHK

target: DNA polymerase iota (Homo sapiens) (UniProt Q9UNA4); test: qHTS for Inhibitors of Polymerase Iota; settings: Pol iota fluorescent replication assay, 10 min; series mostly up to 115 µM
Procedure, shortened: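 Fluorescent replication assay read twice, at 0 min and 10 min after adding 50 nM (final) substrate. Enzyme (10 nM) and compounds were first incubated 15 min at room temperature; enzyme-free buffer wells were negative controls.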
Potency means the concentration at half of the fitted maximal effect.

| SMILES | Potency |
| --- | --- |
| O=S(=O)(c1ccc(S(=O)(=O)n2cnc3ccccc32)cc1)N1CCCCCC1 | inconclusive: 11.2 µM [inhibitor, partial curve, poor fit] |
| COC(=O)[C@@]12CCCN1[C@H](c1ccc(-c3ccc(F)cc3)c(OC)c1)[C@H]1C(=O)N(C)C(=O)[C@H]12 | inconclusive: 11.2 µM [inhibitor, partial curve, poor fit] |
| Cc1onc(NC(=O)c2ccc(Cl)cc2Cl)c1Br | inactive |
| C#CCOCCOCCOCCNc1nc(N2CCN(C(=O)CCCCCCCCCCNC(=O)[C@H]([C@@H](C)CC)n3cc(CCCCN=C(N)N)nn3)CC2)nc(N2CCN(C(=O)CCCCCCCCCCNC(=O)[C@@H]([C@H](C)O)n3cc(C)nn3)CC2)n1 | inconclusive: 14.1 µM [inhibitor, partial curve, poor fit] |
| COc1ccc(CCNC(=O)Cn2nnc(-c3ccc(Cl)cc3)n2)cc1OC | inactive |
| COc1ccc2oc(=O)c(C(C)=O)cc2c1 | inconclusive: 79.4 µM [inhibitor, partial curve, poor fit] |
| COC(=O)c1ccc(NC(=O)CN2CCCN(Cc3ccc(Cl)cc3)S2(=O)=O)cc1 | inactive |
| CCOc1ccccc1NC(=O)C1CCC(CNS(=O)(=O)c2ccc3c(c2)CCCC(=O)N3)CC1 (centres undefined) | inactive |
| c1ccc2sc(NC3=NCN(Cc4ccc5c(c4)OCO5)CN3)nc2c1 | inconclusive: 12.6 µM [inhibitor, partial curve, poor fit] |
| COc1cc(/C=C(/C#N)C(=O)c2c(C)[nH]c3ccccc23)ccc1OCC#N | inconclusive: 25.1 µM [inhibitor, partial curve, poor fit] |
| Cc1c(Cl)cnc(NC(=O)COC(=O)C(NC(=O)c2ccco2)C(C)C)c1Cl (centres undefined) | inconclusive: 35.5 µM [inhibitor, partial curve] |
| Cc1ccc(C)c(NC(=O)CSc2nc(-c3ccccc3)c(C#N)c(=O)[nH]2)c1 | inconclusive: 56.2 µM [inhibitor, full curve, poor fit] |
| Cn1c(C(=O)NCCN2CCc3ccccc3C2)cc2c(=O)n(C)c3ccccc3c21 | inconclusive: 44.7 µM [inhibitor, partial curve, poor fit] |
| COc1ccccc1N1CCN(C(CNS(=O)(=O)c2ccc(C)cc2)c2cccnc2)CC1 (centres undefined) | inconclusive: 11.2 µM [inhibitor, partial curve, poor fit] |
| COC(=O)c1ccc(N=Cc2c(C(F)(F)F)[nH]n(C)c2=O)cc1 | inconclusive: 35.5 µM [inhibitor, single point] |
| CC1(C)NC(=O)N(CC(=O)OCC(=O)c2ccc(Br)s2)C1=O | inconclusive: 31.6 µM [inhibitor, single point] |
| O=C(NCc1cccnc1)C(=O)NCC1OCCN1S(=O)(=O)c1ccccc1 (centres undefined) | inconclusive: 100 µM [inhibitor, partial curve, poor fit] |
| COc1ccc(NC2CCCN(C(=O)c3ccc4nc(C)c(C)nc4c3)C2)cc1OC (centres undefined) | inconclusive: 39.8 µM [inhibitor, single point] |
| O=C(CSc1ccc2nnc(-c3cccnc3)n2n1)NCc1ccco1 | inactive |
| O=S(=O)(c1cccs1)N1CN(Cc2cccs2)c2nc3ccccc3nc21 | inconclusive: 17.8 µM [inhibitor, partial curve, poor fit] |
| O=C(OCc1cc(=O)n2nc(-c3cccs3)sc2n1)c1cccc(F)c1 | inconclusive: 89.1 µM [inhibitor, single point] |
| COCCCNC(=O)c1ccc(Cn2c(SCc3ccc(F)cc3)nc3cccnc32)cc1 | inactive |

| SMILES | Potency |
| --- | --- |
| COc1cccc(C(=O)N(C)C(C)c2nc3ccccc3s2)c1 (centres undefined) | inconclusive: 89.1 µM [inhibitor, single point] |
| COc1ccccc1NC(=O)C12CCC(C)(C(=O)C1)C2(C)C (centres undefined) | inconclusive: 100 µM [inhibitor, single point] |
| C/C=C/C=C\C(=O)Nc1cccc(C2=NOC3(C2)C[C@@H](C(N)=O)N(C(=O)/C(C)=C/C)C3)c1 (some centres undefined) | active: 15.8 µM |
| Cc1ccc(-c2nc(NCc3ccco3)c3ccccc3n2)cc1 | inconclusive: 89.1 µM [inhibitor, single point] |
| O=C(Nc1ccccc1C(=O)O)c1ccccc1 | inconclusive: 15.8 µM [inhibitor, full curve] |
| Cc1cccc[n+]1C1C(c2ccccc2)C(C#N)=C(C(=C=[N-])C#N)NC1(O)C1CC1 (centres undefined) | inconclusive: 25.1 µM [inhibitor, single point] |
| O=C(COC(=O)c1ccc(S(=O)(=O)NCc2ccco2)cc1)Nc1ncc(Cl)cc1Cl | inactive |
| O=C(NCc1ccccc1)c1ccc(CS(=O)(=O)c2ccc(Br)cc2)o1 | inactive |
| Cc1coc2cc3oc(=O)c(CCC(=O)N[C@@H](CCCNC(N)=O)C(=O)O)c(C)c3cc12 | inconclusive: 44.7 µM [inhibitor, partial curve, poor fit] |
| COc1ccc2c(CC(=O)NCc3cccs3)coc2c1 | inconclusive: 20 µM [inhibitor, full curve] |
| CCC(C)CCCCCCCCCCC(=O)O (centres undefined) | inconclusive: 39.8 µM [inhibitor, single point] |
| COc1cccc(CNC(=O)C2CCN(S(=O)(=O)c3c(C)noc3/C=C/c3cccs3)CC2)c1 | inconclusive: 89.1 µM [inhibitor, single point] |
| O=C(NCCc1csc(-c2cccc(F)c2)n1)C(=O)Nc1cc(F)ccc1F | inconclusive: 3.98 µM [inhibitor, full curve, poor fit] |
| N#CC1C(=O)c2ccccc2C1c1ccccc1 (centres undefined) | inconclusive: 25.1 µM [inhibitor, single point] |
| O=c1c([N+](=O)[O-])c(O)c2ccccc2n1Cc1ccccc1 | inactive |
| N#C/C(=C\c1cccs1)C(=O)c1ccccc1Cl | inconclusive: 3.55 µM [inhibitor, full curve, poor fit] |
| O=C(CN1CCOCC1)N/N=C/c1ccc(-c2ccc(C(=O)O)cc2)o1 | inactive |
| C=CSc1sc(Cl)c(N(CC)CC)c1[N+](=O)[O-] | inconclusive: 20 µM [inhibitor, partial curve] |
| COc1ccccc1N1CC(C(=O)Nc2ccc(S(=O)(=O)N3CCCC3)cc2)CC1=O (centres undefined) | inconclusive: 44.7 µM [inhibitor, partial curve] |
| O=C(CN1C(=O)c2ccccc2S1(=O)=O)c1ccc(O)c(O)c1 | inconclusive: 17.8 µM [inhibitor, partial curve, poor fit] |
| Cc1ccc(N=Cc2ccc(O)cc2O)cc1F | inconclusive: 2.82 µM [inhibitor, full curve, poor fit] |
| Cc1ccc(CN2CCCn3nc(C(=O)NCc4ccc(N(C)C)cc4)cc3C2=O)cc1 | inactive |

Part of the list above, set out differently:
COc1ccccc1NC(=O)C12CCC(C)(C(=O)C1)C2(C)C (centres undefined)
  Potency: inconclusive: 100 µM [inhibitor, single point]
C/C=C/C=C\C(=O)Nc1cccc(C2=NOC3(C2)C[C@@H](C(N)=O)N(C(=O)/C(C)=C/C)C3)c1 (some centres undefined)
  Potency: active: 15.8 µM
O=C(Nc1ccccc1C(=O)O)c1ccccc1
  Potency: inconclusive: 15.8 µM [inhibitor, full curve]
Cc1cccc[n+]1C1C(c2ccccc2)C(C#N)=C(C(=C=[N-])C#N)NC1(O)C1CC1 (centres undefined)
  Potency: inconclusive: 25.1 µM [inhibitor, single point]

(continued)

| SMILES | Potency |
| --- | --- |
| Clc1ccc(-c2cc3ncc4c(n3n2)-c2ccccc2OC4)cc1 | inactive |
| NNC(=O)c1cc(NS(=O)(=O)c2cccs2)cc(NS(=O)(=O)c2cccs2)c1 | active: 39.8 µM |
| Cc1ccc(-c2nnc3n2N=C(c2ccccc2Br)CS3)cc1 | inconclusive: 35.5 µM [inhibitor, single point] |
| CCOc1cc(C2NC(=O)NC(C)=C2C(C)=O)cc(Cl)c1OCC(=O)O (centres undefined) | inconclusive: 79.4 µM [inhibitor, partial curve, poor fit] |
| O=C(O)CCCC(=O)Nc1ccc(N2CCCC2)cc1 | inconclusive: 8.91 µM [inhibitor, full curve, poor fit] |
| CCC(=O)N1CCc2cc(S(=O)(=O)NCCC(=O)Nc3ccc(CC)cc3)ccc21 | inactive |
| Cc1ccccc1OCc1n[nH]c(=S)n1Cc1ccccc1 | inactive |
| O=[N+]([O-])c1ccc(Cl)c(S(=O)(=O)Nc2ccc(-c3ccc(N4CCCC4)nn3)cc2)c1 | inconclusive: 39.8 µM [inhibitor, single point] |
| Cc1ccc(-c2cc3c(nn2)-c2ccccc2C3=O)cc1 | inactive |
| N#Cc1c(NC(=O)c2cc(C3CC3)on2)sc2c1CCC2 | inconclusive: 63.1 µM [inhibitor, partial curve, poor fit] |
| COC(=O)C1=C(C)OC(N)=C(C#N)C1c1cccnc1 (centres undefined) | inconclusive: 39.8 µM [inhibitor, partial curve, poor fit] |
| O=C1CC(N(O)c2ccccc2)C(=O)N1c1ccc(Cl)c(Cl)c1 (centres undefined) | inconclusive: 22.4 µM [inhibitor, partial curve, poor fit] |
| NC(=S)n1[nH]c(-c2ccc([N+](=O)[O-])cc2)c(N=Nc2ccccc2[N+](=O)[O-])c1=O | inconclusive: 44.7 µM [inhibitor, single point] |
| C/C(=N/NC(=O)CNC(=O)COc1cccc(C)c1)c1ccc(Cl)cc1 | inconclusive: 89.1 µM [inhibitor, single point] |
| COc1ccc(CCn2c(C)nc3c(c(=O)c4ccccc4n3C)c2=O)cc1 | inactive |
| O=C(OCC(=O)N1CCN(c2ccccc2)CC1)c1ccc([N+](=O)[O-])s1 | inconclusive: 3.16 µM [inhibitor, full curve, poor fit] |
| O=C(Nc1ccc2c(c1)OCCO2)c1cccnc1 | inconclusive: 39.8 µM [inhibitor, partial curve, poor fit] |
| CCCCN(C(=O)c1cccc(-n2cccc2)c1)c1c(N)n(CCC)c(=O)[nH]c1=O | active: 14.1 µM |
| CC(=O)Nc1ccc(-c2csc(Nc3ccc(S(N)(=O)=O)cc3)n2)cc1 | inactive |
| N#Cc1c(N)nc(SCc2ccccn2)c(C#N)c1-c1cccs1 | inconclusive: 63.1 µM [inhibitor, partial curve, poor fit] |
